Assay results: the supplement of paper PMC4604168 (melanoma cell lines)
The other results are listed elsewhere or left out. Repeats are few or missing, and single values can be far off.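 Cells were imaged in 1,536-well plates, and nuclei stained with an antibody against cleaved PARP were counted against all DNA-stained nuclei to give the apoptosis fraction. Screening doses were chosen to leave most cells alive, and resting and induced cleaved-PARP levels differ strongly between cell lines.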

What follows are compounds tested on COLO829 (assay: cleaved PARP positive nuclei fraction relative to DMSO control; melanoma cells; higher = more apoptosis). Details: library dose: low library concentration; 72 h.
`COc1ccc2c(c1)CCC1C2CCC2(C)C(NCCCCCCN3C(=O)C=CC3=O)CCC12` (stereo unspecified) + COc1cc(N2CCC(N3CCN(C)CC3)CC2)ccc1Nc1ncc(Cl)c(Nc2ccccc2S(=O)(=O)C(C)C)n1 [NVP-TAE684] (first compound 0.4 µM, partner dose 0.08 µM) was tested, and the “cleaved PARP positive nuclei fraction” value was 66.7%.
For `O=C(O)C(=O)Nc1sc2c(c1C(=O)O)CCNC2` + COc1cc(N2CCC(N3CCN(C)CC3)CC2)ccc1Nc1ncc(Cl)c(Nc2ccccc2S(=O)(=O)C(C)C)n1 [NVP-TAE684] (first compound 1.66667 µM, partner dose 0.08 µM), the “cleaved PARP positive nuclei fraction” value was 80.3%.
For `CCCCCCCCCCCC1=C(O)C(=O)C=C(O)C1=O` [Embelin] + O=c1cc(-c2cccc3c2Sc2ccccc2S3)oc(N2CCOCC2)c1 [KU55933] (first compound 1.2 µM, partner dose 1 µM), the “cleaved PARP positive nuclei fraction” value was 144%.
In the case of `COc1cc2ncnc(Nc3ccc(Oc4ccccc4)cc3)c2cc1OC` + CC(C)CCN1c2nc(Nc3cc(F)c(O)c(F)c3)ncc2N(C)C(=O)C1C [BID1870] (first compound 2 µM, partner dose 0.2 µM), the “cleaved PARP positive nuclei fraction” value is reported as 114%.
For `N#Cc1c(O)c2c(-c3ccc(-c4ccccc4O)cc3)csc2[nH]c1=O` + COC(=O)c1sccc1S(=O)(=O)Nc1ccc(Nc2ccccc2)cc1OC [GSK0660] (first compound 2 µM, partner dose 1 µM), the “cleaved PARP positive nuclei fraction” value was 70.4%.
With `NCC(=O)Nc1ccc(-n2nc(C(F)(F)F)cc2-c2ccc3c(ccc4ccccc43)c2)cc1` + CN(NC(=O)CC(=O)NN(C)C(=S)c1ccccc1)C(=S)c1ccccc1 [STA4783] (first compound 1 µM, partner dose 0.006 µM) the “cleaved PARP positive nuclei fraction” value was 64%.
With `NCC(=O)Nc1ccc(-n2nc(C(F)(F)F)cc2-c2ccc3c(ccc4ccccc43)c2)cc1` + COc1cc(N2CCC(N3CCN(C)CC3)CC2)ccc1Nc1ncc(Cl)c(Nc2ccccc2S(=O)(=O)C(C)C)n1 [NVP-TAE684] (first compound 1 µM, partner dose 0.08 µM) the “cleaved PARP positive nuclei fraction” value was 167%.
In the case of `CCc1ccc(CCOc2ccc(CC3SC(=O)NC3=O)cc2)nc1` (stereo unspecified) [pioglitazone] + O=C(O)C(=O)Nc1sc2c(c1C(=O)O)CCNC2 [TCS401] (first compound 2 µM, partner dose 1.66667 µM), the “cleaved PARP positive nuclei fraction” value is reported as 91.9%.
In the case of `CCN(CC)CCCCNc1ncc2cc(-c3cc(OC)cc(OC)c3)c(NC(=O)NC(C)(C)C)nc2n1` + Oc1cc(-c2nc(-c3ccccc3)[nH]c2-c2ccncc2)ccc1Cl [L779450] (first compound 0.1 µM, partner dose 0.2 µM), the “cleaved PARP positive nuclei fraction” value is reported as 152%.
`O=C1NC(=O)/C(=C/c2ccc(-c3ccc(F)cc3O)o2)S1` + Cc1cc([N+](=O)[O-])ccc1NS(=O)(=O)c1cc(Cl)ccc1Cl [FH535] (first compound 1 µM, partner dose 1 µM) was tested, and the “cleaved PARP positive nuclei fraction” value was 85.7%.
In the case of `c1cc(-c2cnn3cc(-c4ccc(OCCN5CCCCC5)cc4)cnc23)ccn1` [Dorsomorphin] + CCCCCCCCCCCC1=C(O)C(=O)C=C(O)C1=O [Embelin] (first compound 0.4 µM, partner dose 1.2 µM), the “cleaved PARP positive nuclei fraction” value is reported as 98.5%.
For `COC(=O)c1sccc1S(=O)(=O)Nc1ccc(Nc2ccccc2)cc1OC` + O=C(O)C(=O)Nc1sc2c(c1C(=O)O)CCNC2 [TCS401] (first compound 1 µM, partner dose 1.66667 µM), the “cleaved PARP positive nuclei fraction” value was 94%.
For `O=C(Nc1ccccc1)c1cc([N+](=O)[O-])ccc1Cl` + COc1ccc(-c2ccc3c(N4CCOCC4)nc(N4C[C@@H](C)O[C@@H](C)C4)nc3n2)cc1CO [KU0063794] (first compound 2 µM, partner dose 0.02 µM), the “cleaved PARP positive nuclei fraction” value was 192%.
`O=C(O)c1ccc(-c2c[nH]c3ncc(-c4ccccc4)cc23)cc1C1CCCC1` + COc1cc2c(Oc3ccc4[nH]c(C)cc4c3F)ncnc2cc1OCCCN1CCCC1 [cediranib] (first compound 0.16 µM, partner dose 0.4 µM) was tested, and the “cleaved PARP positive nuclei fraction” value was 73.1%.
In the case of `CN(C)S(=O)(=O)c1ccc2c(c1)/C(=C/c1cc3c([nH]1)CCCC3)C(=O)N2` + CN(NC(=O)CC(=O)NN(C)C(=S)c1ccccc1)C(=S)c1ccccc1 [STA4783] (first compound 0.4 µM, partner dose 0.006 µM), the “cleaved PARP positive nuclei fraction” value is reported as 107%.
`O=C(O)c1ccc(-c2c[nH]c3ncc(-c4ccccc4)cc23)cc1C1CCCC1` + NCC(=O)Nc1ccc(-n2nc(C(F)(F)F)cc2-c2ccc3c(ccc4ccccc43)c2)cc1 [OSU03012] (first compound 0.16 µM, partner dose 1 µM) was tested, and the “cleaved PARP positive nuclei fraction” value was 128%.
With `CN(C)S(=O)(=O)c1ccc2c(c1)/C(=C/c1cc3c([nH]1)CCCC3)C(=O)N2` + COc1cc2c(Oc3ccc4[nH]c(C)cc4c3F)ncnc2cc1OCCCN1CCCC1 [cediranib] (first compound 0.4 µM, partner dose 0.4 µM) the “cleaved PARP positive nuclei fraction” value was 70.5%.
`COC(=O)c1sccc1S(=O)(=O)Nc1ccc(Nc2ccccc2)cc1OC` + Oc1cc(-c2nc(-c3ccccc3)[nH]c2-c2ccncc2)ccc1Cl [L779450] (first compound 1 µM, partner dose 0.2 µM) was tested, and the “cleaved PARP positive nuclei fraction” value was 51.8%.
In the case of `O=C1NC(=O)/C(=C/c2ccc(-c3ccc(F)cc3O)o2)S1` + CCCCCCCCCCCC1=C(O)C(=O)C=C(O)C1=O [Embelin] (first compound 1 µM, partner dose 1.2 µM), the “cleaved PARP positive nuclei fraction” value is reported as 46.7%.
With `COc1cc(N2CCC(N3CCN(C)CC3)CC2)ccc1Nc1ncc(Cl)c(Nc2ccccc2S(=O)(=O)C(C)C)n1` + CC(C)CCN1c2nc(Nc3cc(F)c(O)c(F)c3)ncc2N(C)C(=O)C1C [BID1870] (first compound 0.08 µM, partner dose 0.2 µM) the “cleaved PARP positive nuclei fraction” value was 95.6%.
`CN(C)S(=O)(=O)c1ccc2c(c1)/C(=C/c1cc3c([nH]1)CCCC3)C(=O)N2` + O=C(O)c1ccc(-c2c[nH]c3ncc(-c4ccccc4)cc23)cc1C1CCCC1 [GSK650394] (first compound 0.4 µM, partner dose 0.16 µM) was tested, and the “cleaved PARP positive nuclei fraction” value was 63.2%.
In the case of `COc1cc2ncnc(Nc3ccc(Oc4ccccc4)cc3)c2cc1OC` + O=C1NC(=O)/C(=C/c2ccc(-c3ccc(F)cc3O)o2)S1 [AS252424] (first compound 2 µM, partner dose 1 µM), the “cleaved PARP positive nuclei fraction” value is reported as 85.9%.
With `CCN(CC)CCCCNc1ncc2cc(-c3cc(OC)cc(OC)c3)c(NC(=O)NC(C)(C)C)nc2n1` + COc1cc(N2CCC(N3CCN(C)CC3)CC2)ccc1Nc1ncc(Cl)c(Nc2ccccc2S(=O)(=O)C(C)C)n1 [NVP-TAE684] (first compound 0.1 µM, partner dose 0.08 µM) the “cleaved PARP positive nuclei fraction” value was 49.8%.
`O=C(Nc1ccccc1)c1cc([N+](=O)[O-])ccc1Cl` + Cc1cc([N+](=O)[O-])ccc1NS(=O)(=O)c1cc(Cl)ccc1Cl [FH535] (first compound 2 µM, partner dose 1 µM) was tested, and the “cleaved PARP positive nuclei fraction” value was 135%.
For `COc1ccc(-c2ccc3c(N4CCOCC4)nc(N4C[C@@H](C)O[C@@H](C)C4)nc3n2)cc1CO` + Cn1cc(/C=C2\C(=O)Nc3cccnc32)c2ccccc21 [GW441756] (first compound 0.02 µM, partner dose 0.4 µM), the “cleaved PARP positive nuclei fraction” value was 101%.
`COc1cc2c(Oc3ccc4[nH]c(C)cc4c3F)ncnc2cc1OCCCN1CCCC1` [cediranib] + O=c1cc(-c2cccc3c2Sc2ccccc2S3)oc(N2CCOCC2)c1 [KU55933] (first compound 0.4 µM, partner dose 1 µM) was tested, and the “cleaved PARP positive nuclei fraction” value was 112%.
